The values below come from PMC9203792.

No constants are given. Whether binding was seen depends on the method and setting. In cells and extracts the contact can be indirect. Some entries that bind do so weakly or less than the wild type. For some assays here: Where a sequence is shown, tags or fusion partners need not be part of it.

Experiment [1] has as its target T1, MFN1 1–336 (UniProt Q8IWA4).
T1 sequence: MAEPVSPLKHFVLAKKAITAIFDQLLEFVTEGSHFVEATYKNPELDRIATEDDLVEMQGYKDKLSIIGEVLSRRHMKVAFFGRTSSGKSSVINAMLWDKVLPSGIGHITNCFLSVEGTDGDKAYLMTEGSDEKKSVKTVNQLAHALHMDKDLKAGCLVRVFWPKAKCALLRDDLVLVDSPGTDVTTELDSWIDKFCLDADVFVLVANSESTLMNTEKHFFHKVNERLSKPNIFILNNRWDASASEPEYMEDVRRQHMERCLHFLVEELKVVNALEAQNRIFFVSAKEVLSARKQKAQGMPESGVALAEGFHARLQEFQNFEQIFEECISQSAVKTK
The experiment is described as follows: co-IP; HEK293T cells transfected with tagged constructs; mild lysis buffer (100 mM NaCl, 1% NP40, 10 mM Tris pH 7.5, 10 mM EDTA), antibody 2 h at 4 °C, protein G-Sepharose; western blotting.

The target of experiment [2] is T2, MFN1, ectopically expressed (UniProt Q8IWA4).
T2 sequence: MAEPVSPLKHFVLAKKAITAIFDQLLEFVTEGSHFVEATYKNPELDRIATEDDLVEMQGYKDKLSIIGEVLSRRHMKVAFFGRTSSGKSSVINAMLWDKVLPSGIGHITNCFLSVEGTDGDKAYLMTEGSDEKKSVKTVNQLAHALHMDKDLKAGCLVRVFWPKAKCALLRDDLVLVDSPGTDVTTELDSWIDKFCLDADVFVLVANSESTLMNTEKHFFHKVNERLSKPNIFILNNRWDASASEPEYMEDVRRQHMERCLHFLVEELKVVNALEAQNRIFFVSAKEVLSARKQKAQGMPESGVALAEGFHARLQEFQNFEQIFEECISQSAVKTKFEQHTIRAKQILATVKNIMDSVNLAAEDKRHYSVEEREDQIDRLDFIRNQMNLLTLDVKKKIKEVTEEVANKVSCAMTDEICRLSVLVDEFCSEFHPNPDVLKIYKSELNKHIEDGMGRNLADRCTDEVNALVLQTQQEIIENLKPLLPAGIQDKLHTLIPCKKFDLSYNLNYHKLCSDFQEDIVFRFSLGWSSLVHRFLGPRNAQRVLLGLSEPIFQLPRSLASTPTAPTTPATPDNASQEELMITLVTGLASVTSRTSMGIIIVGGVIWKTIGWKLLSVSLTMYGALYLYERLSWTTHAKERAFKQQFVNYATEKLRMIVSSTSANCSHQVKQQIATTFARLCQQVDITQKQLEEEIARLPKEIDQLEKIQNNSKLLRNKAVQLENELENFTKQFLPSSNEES
The experiment is described as above.

The target in experiment [3] is T3, MFN1 1–584 (UniProt Q8IWA4).
T3 sequence: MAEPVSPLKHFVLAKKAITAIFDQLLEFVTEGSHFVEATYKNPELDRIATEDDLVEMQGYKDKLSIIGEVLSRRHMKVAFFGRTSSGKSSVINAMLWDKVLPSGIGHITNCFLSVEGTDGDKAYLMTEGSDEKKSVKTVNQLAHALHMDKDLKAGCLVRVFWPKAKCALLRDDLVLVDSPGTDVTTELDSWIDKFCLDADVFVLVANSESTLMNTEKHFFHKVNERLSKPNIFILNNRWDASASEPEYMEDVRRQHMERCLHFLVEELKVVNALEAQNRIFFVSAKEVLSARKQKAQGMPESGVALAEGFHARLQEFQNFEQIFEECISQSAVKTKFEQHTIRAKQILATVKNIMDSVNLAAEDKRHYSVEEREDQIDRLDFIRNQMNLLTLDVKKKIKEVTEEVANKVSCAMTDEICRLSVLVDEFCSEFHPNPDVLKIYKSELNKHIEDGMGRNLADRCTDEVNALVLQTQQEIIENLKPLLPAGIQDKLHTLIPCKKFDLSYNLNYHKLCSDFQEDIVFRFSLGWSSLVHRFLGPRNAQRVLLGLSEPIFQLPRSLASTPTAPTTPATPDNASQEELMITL
Described as above.

For experiment [4], the target named is T4, MFN2, ectopically expressed (UniProt O95140).
T4 sequence: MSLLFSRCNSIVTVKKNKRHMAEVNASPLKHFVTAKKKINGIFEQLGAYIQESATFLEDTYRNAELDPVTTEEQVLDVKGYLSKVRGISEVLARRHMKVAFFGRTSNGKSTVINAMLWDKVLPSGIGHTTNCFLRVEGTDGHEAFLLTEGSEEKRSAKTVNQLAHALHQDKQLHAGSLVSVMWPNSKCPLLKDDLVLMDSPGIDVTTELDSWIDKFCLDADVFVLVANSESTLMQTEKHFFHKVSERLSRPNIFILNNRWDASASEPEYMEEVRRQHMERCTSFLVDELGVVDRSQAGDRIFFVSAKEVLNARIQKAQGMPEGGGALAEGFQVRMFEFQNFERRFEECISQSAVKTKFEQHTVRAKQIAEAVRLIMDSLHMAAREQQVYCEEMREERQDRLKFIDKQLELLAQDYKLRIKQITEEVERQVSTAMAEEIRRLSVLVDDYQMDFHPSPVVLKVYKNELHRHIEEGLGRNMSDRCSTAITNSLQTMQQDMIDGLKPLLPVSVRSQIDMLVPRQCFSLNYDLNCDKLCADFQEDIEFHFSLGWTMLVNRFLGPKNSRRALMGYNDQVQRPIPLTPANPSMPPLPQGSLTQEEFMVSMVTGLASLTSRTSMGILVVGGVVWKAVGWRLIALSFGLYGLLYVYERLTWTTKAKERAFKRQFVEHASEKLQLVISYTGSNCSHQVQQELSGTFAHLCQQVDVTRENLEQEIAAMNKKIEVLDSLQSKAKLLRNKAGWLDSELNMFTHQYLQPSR
The experiment is described as above.

Experiment [5] addresses T5, mitofusin 1 (MFN1), endogenous (human (endogenous in Huh-7)) (UniProt Q8IWA4).
T5 sequence: T2 sequence
Briefly: co-IP; endogenous proteins in Huh-7 lysate; mild lysis buffer (100 mM NaCl, 1% NP40, 10 mM Tris pH 7.5, 10 mM EDTA), protein G-Sepharose; western blotting. (In western blotting, separated proteins are transferred to a membrane and probed.)

Experiment [6] concerns the target T6, mitofusin 2 (MFN2), endogenous (human (endogenous in Huh-7)) (UniProt O95140).
T6 sequence: T4 sequence
The experiment is described as above.

B1: FUNDC2 1–127 (domain or fragment, UniProt Q9BWH2 1-127)
chain: METSAPRAGSQVVATTARHSAAYRADPLRVSSRDKLTEMAASSQGNFEGNFESLDLAEFAKKQPWWRKLFGQESGPSAEKYSVATQLFIGGVTGWCTGFIFQKVGKLAATAVGGGFFLLQLANHTGY
Turning to B1, the binding result in experiment [1] and in experiment [2] was “binds” throughout.

B2: FUNDC2, ectopically expressed (protein, UniProt Q9BWH2 1-189)
chain: METSAPRAGSQVVATTARHSAAYRADPLRVSSRDKLTEMAASSQGNFEGNFESLDLAEFAKKQPWWRKLFGQESGPSAEKYSVATQLFIGGVTGWCTGFIFQKVGKLAATAVGGGFFLLQLANHTGYIKVDWQRVEKDMKKAKEQLKIRKSNQIPTEVRSKAEEVVSFVKKNVLVTGGFFGGFLLGMAS
B2: the binding result in experiment [1], in experiment [3], in experiment [2] and in experiment [4] was “binds” throughout.

B3: FUN14 domain containing 2 (FUNDC2), endogenous (protein, UniProt Q9BWH2 1-189)
chain: B2 chain
For the molecule B3, the binding entry in experiment [5] and in experiment [6] was “binds” throughout.
